# The campaign covered roughly 330,000 compounds. About 7,700 (2.3%) were called active. Inconclusive means that the source gave no clear call. Such entries were picked first, then a sample of the others. Calls come from the whole dose curve; as a rule, active = well fitted inhibition curve with a large enough effect; inconclusive = small, poorly fitted or top-dose-only effect, or effect the other way; inactive = flat fitted curve, though single readings scatter. A potency beside an inconclusive call is a rough fit, not a confirmed value.
# Experiment: qHTS screen for small molecules that inhibit ELG1-dependent DNA repair in human embryonic kidney (HEK293T) cells expressing luciferase-tagged ELG1; note: nearly all actives have a fitted effect of over 55% in size
# Settings: HEK293T ELG1-luciferase reporter, luminescence, 16 h, DNA damage induced by 5-fluorouridine; activity change, negative = inhibition: at 46.1 µM (top of the series)
# Outline: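 Quantitative HTS, concentration-response format. 2,000 cells/well co-treated with 5-fluorouridine and compound, 16 hr in 5% CO2 at 37 °C; ONE-Glo luminescence read after 30 min.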
# % is set by controls: 0 for no effect and ±100 for the full control effect; potency is the fitted concentration of half-maximal effect.
SMILES,Potency,"activity change, negative = inhibition"
O=C(Nc1ccccn1)c1ccc(S(=O)(=O)N2CCCC2)cc1,"inconclusive: 23.1 µM [activator, single point]",–
CCN(CC(=O)NCc1cccs1)C(=O)CCCOc1ccccc1,–,inactive: 18.8%
COc1ccccc1-n1nc(C(=O)Nc2ccc3c(c2)OCO3)c2ccccc2c1=O,"inconclusive: 20.6 µM [inhibitor, single point]",–
COc1ccc(Nc2ccc([N+](=O)[O-])cn2)cc1,"inconclusive: 20.6 µM [activator, partial curve]",–
Cc1noc(/C=C/c2ccco2)c1S(=O)(=O)N1CCC(C(=O)NCc2ccco2)CC1,"inconclusive: 25.9 µM [inhibitor, partial curve, poor fit]",–
O=C(Nc1cccnc1)c1ccc(NC(=O)c2ccco2)cc1,"inconclusive: 29.1 µM [activator, single point]",–
CCOC(=O)CSC1=C(C#N)C(C)C2=C(CCCC2=O)N1 (stereo not drawn),"inconclusive: 16.4 µM [activator, partial curve, poor fit]",–
CC(NC(=O)c1cc(COc2cccc(C(F)(F)F)c2)on1)c1nccs1 (stereo not drawn),"inconclusive: 16.4 µM [activator, partial curve]",–
CCCCOC(=O)c1ccc(NC(=O)COC(=O)c2ccc3ncsc3c2)cc1,"inconclusive: 25.9 µM [activator, partial curve, poor fit]",–
Cc1ccc(NC(=O)c2ccc3c(c2)N(CC(=O)N2CCCCC2)C(=O)C(C)(C)O3)cc1,active: 13 µM,–
COc1ccc(CNC(=O)CN(c2ccc(C(C)C)cc2)S(=O)(=O)c2c(C)noc2C)cc1,"inconclusive: 16.4 µM [activator, partial curve, poor fit]",–
CC(C)N=C1NN=C(c2ccc(Cl)c(Cl)c2)CS1,"inconclusive: 3.66 µM [activator, full curve]",–
Cc1ccc(N2CCN(c3ncccc3[N+](=O)[O-])CC2)c(C)c1,–,inactive: -6.19%
COc1cccc(CN(C)C(=O)Cc2ccc(OC)c(S(=O)(=O)N3CCOCC3)c2)c1,"inconclusive: 29.1 µM [activator, single point]",–
COc1ccc(NC(=O)c2nc(C)c(C3(C)CC(c4cccnc4)=NO3)s2)cc1 (stereo not drawn),"inconclusive: 6.51 µM [inhibitor, single point]",–
O=C(Nc1ccccc1C(=O)NCc1ccco1)NC1CCCCC1,"inconclusive: 29.1 µM [activator, partial curve, poor fit]",–
c1ccc(CN=C2Nc3ccccc3CS2)nc1,"inconclusive: 6.51 µM [activator, partial curve]",–
O=C(c1cc2nc(-c3ccco3)cc(C(F)(F)F)n2n1)N1CCCc2ccccc21,"inconclusive: 32.6 µM [inhibitor, single point]",–
O=C(Nc1nnc(-c2ccc(Br)cc2)o1)c1ccco1,"inconclusive: 29.1 µM [activator, single point]",–
COc1cc(Cl)c(C)cc1NC(=O)CSc1nnc(-c2ccccn2)n1Cc1ccco1,"inconclusive: 23.1 µM [inhibitor, single point]",–
COc1ccc(-c2nn3c(=O)c(C)nnc3s2)cc1,"inconclusive: 18.3 µM [activator, single point]",–
O=C(COc1ccc2c3c(c(=O)oc2c1)CCCC3)NCCCn1ccnc1,–,inactive: -3.92%

# Record cards (already shown). Values in the order: Potency	activity change, negative = inhibition
# c1ccc(CN=C2Nc3ccccc3CS2)nc1 in the list: inconclusive: 6.51 µM [activator, partial curve]	–
# Cc1ccc(N2CCN(c3ncccc3[N+](=O)[O-])CC2)c(C)c1 in the list: –	inactive: -6.19%
# CC(NC(=O)c1cc(COc2cccc(C(F)(F)F)c2)on1)c1nccs1 (stereo not drawn) in the list: inconclusive: 16.4 µM [activator, partial curve]	–

# (listing goes on)

SMILES,Potency,"activity change, negative = inhibition"
Cc1ccc(N/N=C(\Cc2nc3ccccc3[nH]2)c2ccccc2)cc1,"inconclusive: 29.1 µM [activator, single point]",–
CCOC(=O)c1c(NC(=O)COC(=O)c2ccc(O)cc2)sc(C(=O)N(C)C)c1C,"inconclusive: 18.3 µM [inhibitor, single point]",–
CN(CC(=O)Nc1cccc(Cl)c1)S(=O)(=O)c1ccc2c(c1)n(C)c(=O)c(=O)n2C,–,inactive: 23.6%
C(=N\n1cnnc1)/c1cccc(Oc2ccccc2)c1,–,inactive: 0.587%
COc1ccc(C2CC2/C(=N/O)c2ccccc2)cc1 (stereo not drawn),"inconclusive: 20.6 µM [activator, partial curve]",–
Cc1c(NC(=O)C(C)Oc2ccc(Br)cc2Cl)c(=O)n(-c2ccccc2)n1C (stereo not drawn),–,inactive: 4.6%
Cc1cccc(-n2cnc3c(sc4nc(N5CCOCC5)c5c(c43)CCCC5)c2=O)c1,"inconclusive: 29.1 µM [inhibitor, single point]",–
CC(C)CC(C)c1cc(N)nc2nc3ccccc3n12 (stereo not drawn),–,inactive: 0.491%
O=C1OCCN1C(=O)[C@H]1[C@H](c2ccc([N+](=O)[O-])cc2)C(c2cccc(Cl)c2)=NN1c1ccc(Br)cc1,–,inactive: -6.03%
O=C(Oc1cccc(C(=S)N2CCOCC2)c1)c1cc([N+](=O)[O-])cc([N+](=O)[O-])c1,–,inactive: 14.3%
O=C(COC(=O)Cc1c(Cl)cccc1Cl)NC1CCCC1,"inconclusive: 25.9 µM [inhibitor, single point]",–
CC(C)(C)NC(=O)CSc1nc2ccccc2c(=O)[nH]1,"inconclusive: 11.6 µM [activator, partial curve]",–
O=C(NC(Cc1ccccc1)C(=O)N1CCN(c2ccccc2O)CC1)c1ccccc1 (stereo not drawn),"inconclusive: 4.61 µM [inhibitor, single point]",–
CC(=O)Nc1sc(N/N=C/c2ccccc2)nc1-c1ccc(C)cc1,"inconclusive: 16.4 µM [activator, single point]",–
CN1CCN(c2ccc(S(=O)(=O)N3CCCCC3)cc2N)CC1,"inconclusive: 25.9 µM [activator, single point]",–
CSc1nc(Cl)cc(Nc2ccc(O)cc2)n1,"inconclusive: 18.3 µM [activator, single point]",–
CCOc1ccc(-c2nc(=S)[nH][nH]2)cc1,"inconclusive: 11.6 µM [activator, partial curve]",–
COc1cccc(N2C(=NC(=O)C3CCCO3)SC3CS(=O)(=O)CC32)c1 (stereo not drawn),–,inactive: -0.218%
CCOc1cc(C(=O)OCC(=O)c2c(C)[nH]c3ccccc23)ccc1OCC(=O)N1CCOCC1,active: 16.4 µM,–
CCC(C)c1ccccc1N1CC(C(=O)Nc2ccc(S(=O)(=O)N3CCOCC3)cc2)CC1=O (stereo not drawn),–,inactive: 9.59%
CCOC(=O)c1nnn(-c2nonc2-n2cccc2)c1CCl,–,inactive: 0.0458%

# Source: PubChem BioAssay AID504467 (National Center for Advancing Translational Sciences (NCATS), 2011)
